Assay results as given in PMC8304084, “A Concerted Action of UBA5 C-Terminal Unstructured Regions Is Important for Transfer of Activated UFM1 to UFC1” (International Journal of Molecular Sciences, 2021).
These are yes or no findings as the source states them, for the method shown.

Chains of the proteins cited; added tags and fusions are not shown. Lines headed by an entry give the natural chain unless they say otherwise; changes in a name come on top. A line that says so, or that is headed by a name, gives the form on record, which may keep a tag or linker. Residues count along the entry.
Full length UFM1, residues 2–83 (P61960, form named): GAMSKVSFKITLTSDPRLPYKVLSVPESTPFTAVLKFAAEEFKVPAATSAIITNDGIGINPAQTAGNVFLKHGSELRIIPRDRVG

Legend:
[1] = target: Full length UFM1, residues 2–83 (UniProt P61960); experiment: ITC; VP-ITC, 25 °C; UBA5 peptides (~400 µM) titrated into 20–25 µM binding partner; 25 mM HEPES pH 7.5, 100 mM NaCl; one-site model; a single profile for each interaction; both purified
[2] = target: GABARAPL2, residues 3–116 (UniProt P60520); experiment: as above

Question: Which binding [1] does the source give for “UBA5 C-terminal region R2, residues 359–376 (from UniProt Q9GZZ9 359-376) (peptide)” here?
Answer: The binding was “no binding (tested: KD >100 µM (estimated value))”.

Question: What about the binding [2] of the same substance?
Answer: The binding was “no binding (tested: KD >100 µM (estimated value))”.
